# Assay results reported in the supplement of paper PMC8728848.
# The list shows a part of the results.
# Assays:
# Assay in all cases: glycan array binding signal (z-score within array); higher = stronger binding
# Conditions in all cases: glycan notation: IUPAC condensed, linker removed
# [1] = biological target: Fuc(a1-2)[GalNAc(b1-3)]Gal
# Method in brief: (§1)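 The Consortium for Functional Glycomics database supplied 3228 glycan arrays, of which those lacking an available protein sequence were dropped. The binding signal, a within-array Z-score, was averaged across arrays of the same protein sequence and across linkers. Negative scores can be read as non-binding.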
# Fuc(a1-3)GlcNAc = biological target: Fuc(a1-3)GlcNAc
# Method in brief: as §1
# [2] = biological target: Fuc(a1-3)[Gal(b1-4)]Glc6S
# Method in brief: as §1
# [3] = biological target: Fuc(a1-3)[Gal(b1-4)]GlcNAc
# Method in brief: as §1
# [4] = biological target: Fuc(a1-3)[Gal(b1-4)]GlcNAc(b1-2)Man
# Method in brief: as §1
# [5] = biological target: Fuc(a1-3)[Gal(b1-4)]GlcNAc(b1-2)Man(a1-3)[Fuc(a1-3)[Gal(b1-4)]GlcNAc(b1-2)Man(a1-6)]Man(b1-4)GlcNAc(b1-4)GlcNAc
# Method in brief: as §1
# [6] = biological target: Fuc(a1-3)[Gal(b1-4)]GlcNAc(b1-2)Man(a1-3)[Fuc(a1-3)[Gal(b1-4)]GlcNAc(b1-2)Man(a1-6)]Man(b1-4)GlcNAc(b1-4)[Fuc(a1-6)]GlcNAc
# Method in brief: as §1
# [7] = biological target: Fuc(a1-3)[Gal(b1-4)]GlcNAc(b1-3)Gal(b1-3)[Fuc(a1-4)]GlcNAc
# Method in brief: as §1
# [8] = biological target: Fuc(a1-3)[Gal(b1-4)]GlcNAc(b1-3)Gal(b1-4)[Fuc(a1-3)]GlcNAc
# Method in brief: as §1
# [9] = biological target: Fuc(a1-3)[Gal(b1-4)]GlcNAc(b1-3)Gal(b1-4)[Fuc(a1-3)]GlcNAc(b1-3)Gal(b1-4)[Fuc(a1-3)]GlcNAc
# Method in brief: as §1
# [10] = biological target: Fuc(a1-3)[Gal(b1-4)]GlcNAc(b1-3)GalNAc
# Method in brief: as §1
# [11] = biological target: Fuc(a1-3)[Gal(b1-4)]GlcNAc(b1-6)GalNAc
# Method in brief: as §1
# [12] = biological target: Fuc(a1-3)[Gal(b1-4)]GlcNAc(b1-6)[Gal(b1-3)GlcNAc(b1-3)]Gal(b1-4)Glc
# Method in brief: as §1
# [13] = biological target: Fuc(a1-3)[Gal(b1-4)]GlcNAc6S
# Method in brief: as §1
# [14] = biological target: Fuc(a1-3)[Gal3S(b1-4)]Glc
# Method in brief: as §1
# [15] = biological target: Fuc(a1-3)[Gal3S(b1-4)]GlcNAc
# Method in brief: as §1
# [16] = biological target: Fuc(a1-3)[Gal3S(b1-4)]GlcNAc6S
# Method in brief: as §1
# [17] = biological target: Fuc(a1-3)[GalNAc(b1-4)]GlcNAc
# Method in brief: as §1
# [18] = biological target: Fuc(a1-3)[GalNAc(b1-4)]GlcNAc6S
# Method in brief: as §1
# Fuc(a1-4)GlcNAc = biological target: Fuc(a1-4)GlcNAc
# Method in brief: as §1
# Fuc(b1-3)GlcNAc = biological target: Fuc(b1-3)GlcNAc
# Method in brief: as §1
# Gal(a1-2)Gal = biological target: Gal(a1-2)Gal
# Method in brief: as §1
# Gal(a1-3)Gal = biological target: Gal(a1-3)Gal
# Method in brief: as §1
# Gal(a1-3)Gal(b1-3)GlcNAc = biological target: Gal(a1-3)Gal(b1-3)GlcNAc
# Method in brief: as §1
# [19] = biological target: Gal(a1-3)Gal(b1-3)GlcNAc(b1-2)Man
# Method in brief: as §1
# [20] = biological target: Gal(a1-3)Gal(b1-3)GlcNAc(b1-2)Man(a1-3)[Gal(a1-3)Gal(b1-3)GlcNAc(b1-2)Man(a1-6)]Man(b1-4)GlcNAc(b1-4)GlcNAc
# Method in brief: as §1
# [21] = biological target: Gal(a1-3)Gal(b1-3)GlcNAc(b1-3)GalNAc
# Method in brief: as §1
# [22] = biological target: Gal(a1-3)Gal(b1-3)GlcNAc(b1-6)GalNAc
# Method in brief: as §1
# [23] = biological target: Gal(a1-3)Gal(b1-3)[Fuc(a1-4)]GlcNAc(b1-2)Man(a1-3)[Gal(a1-3)Gal(b1-3)[Fuc(a1-4)]GlcNAc(b1-2)Man(a1-6)]Man(b1-4)GlcNAc(b1-4)GlcNAc
# Method in brief: as §1
# Gal(a1-3)Gal(b1-4)Glc = biological target: Gal(a1-3)Gal(b1-4)Glc
# Method in brief: as §1
# Gal(a1-3)Gal(b1-4)GlcNAc = biological target: Gal(a1-3)Gal(b1-4)GlcNAc
# Method in brief: as §1
# [24] = biological target: Gal(a1-3)Gal(b1-4)GlcNAc(b1-2)Man
# Method in brief: as §1
# [25] = biological target: Gal(a1-3)Gal(b1-4)GlcNAc(b1-2)Man(a1-3)[Gal(a1-3)Gal(b1-4)GlcNAc(b1-2)Man(a1-6)]Man(b1-4)GlcNAc(b1-4)GlcNAc
# Method in brief: as §1
# [26] = biological target: Gal(a1-3)Gal(b1-4)GlcNAc(b1-3)GalNAc
# Method in brief: as §1
# [27] = biological target: Gal(a1-3)Gal(b1-4)GlcNAc(b1-6)GalNAc
# Method in brief: as §1
# [28] = biological target: Gal(a1-3)Gal(b1-4)[Fuc(a1-3)]GlcNAc
# Method in brief: as §1
# [29] = biological target: Gal(a1-3)Gal(b1-4)[Fuc(a1-3)]GlcNAc(b1-2)Man(a1-3)[Gal(a1-3)Gal(b1-4)[Fuc(a1-3)]GlcNAc(b1-2)Man(a1-6)]Man(b1-4)GlcNAc(b1-4)GlcNAc
# Method in brief: as §1
binder,measurement,setting,value
Epa20 (Candida glabrata) (protein) MGSSHHHHHHSSGLVPRGSHMASSNIPNNYPLGCSNKYSGHLPGLKMELYSYNYVNPRHPDPQNPGKLDQLYDPNLLGTYECFDSSYKDINYPRVGYKSKTLIGRSDGVSGILNFNFVPPWGCMPQKGQLPPAYNFKSNITLSNFTMILFGYFKPKISGNHIFSLHGDDLIYLNFGAGNAFDCCRQESSADNFGNYQAFSLWGINWEKKTLTVYLDMNTYYPIRIFYNNRDYQAIFNFSFKTEFDSSPVIDFQDYFFFLRDIDGGCPGEV,glycan array binding signal (z-score),[1],-0.918
same,glycan array binding signal (z-score),Fuc(a1-3)GlcNAc,-0.482
same,glycan array binding signal (z-score),[2],1.12
same,glycan array binding signal (z-score),[3],-0.386
same,glycan array binding signal (z-score),[4],-0.472
same,glycan array binding signal (z-score),[5],-0.523
same,glycan array binding signal (z-score),[6],0.822
same,glycan array binding signal (z-score),[7],-0.196
same,glycan array binding signal (z-score),[8],1.11
same,glycan array binding signal (z-score),[9],-0.421
same,glycan array binding signal (z-score),[10],0.181
same,glycan array binding signal (z-score),[11],0.842
same,glycan array binding signal (z-score),[12],-0.524
same,glycan array binding signal (z-score),[13],0.648
same,glycan array binding signal (z-score),[14],0.057
same,glycan array binding signal (z-score),[15],-0.133
same,glycan array binding signal (z-score),[16],-0.007
same,glycan array binding signal (z-score),[17],-0.027
same,glycan array binding signal (z-score),[18],0.088
same,glycan array binding signal (z-score),Fuc(a1-4)GlcNAc,-0.229
same,glycan array binding signal (z-score),Fuc(b1-3)GlcNAc,-0.484
same,glycan array binding signal (z-score),Gal(a1-2)Gal,-0.842
same,glycan array binding signal (z-score),Gal(a1-3)Gal,-0.108
same,glycan array binding signal (z-score),Gal(a1-3)Gal(b1-3)GlcNAc,-0.275
same,glycan array binding signal (z-score),[19],-0.058
same,glycan array binding signal (z-score),[20],1.16
same,glycan array binding signal (z-score),[21],-0.255
same,glycan array binding signal (z-score),[22],0.223
same,glycan array binding signal (z-score),[23],0.604
same,glycan array binding signal (z-score),Gal(a1-3)Gal(b1-4)Glc,-0.396
same,glycan array binding signal (z-score),Gal(a1-3)Gal(b1-4)GlcNAc,-0.07
same,glycan array binding signal (z-score),[24],-0.719
same,glycan array binding signal (z-score),[25],-0.147
same,glycan array binding signal (z-score),[26],-0.19
same,glycan array binding signal (z-score),[27],-0.344
same,glycan array binding signal (z-score),[28],-0.728
same,glycan array binding signal (z-score),[29],1.03

# Looked up one by one from the entries so far, two records:
binder,measurement,setting,value
Epa20 (Candida glabrata) (protein) MGSSHHHHHHSSGLVPRGSHMASSNIPNNYPLGCSNKYSGHLPGLKMELYSYNYVNPRHPDPQNPGKLDQLYDPNLLGTYECFDSSYKDINYPRVGYKSKTLIGRSDGVSGILNFNFVPPWGCMPQKGQLPPAYNFKSNITLSNFTMILFGYFKPKISGNHIFSLHGDDLIYLNFGAGNAFDCCRQESSADNFGNYQAFSLWGINWEKKTLTVYLDMNTYYPIRIFYNNRDYQAIFNFSFKTEFDSSPVIDFQDYFFFLRDIDGGCPGEV,glycan array binding signal (z-score),[18],0.088
same,glycan array binding signal (z-score),[10],0.181
